Assay: peptide synthesis
Conditions: late stage modification step

Substance: deoxymulundocandin
- step yield (run 1): 75%
- step yield (run 2): 30% yield

From US6809177 (dated 2004)
